Laboratory results: paper PMC5684413
Results are given in words; binding and its absence hold for the method and conditions named. For some assays here: In cells and extracts the contact can be indirect. Some binding calls cover weakened binding; strength is not graded here. For some assays here: Tags and fused reporters may be left off the sequences shown. Values belong to the binder of their own block, whether it stands above or below them.

Chains of the proteins cited; added tags and fusions are not shown. Lines headed by an entry give the natural chain unless they say otherwise; changes in a name come on top. Residues count along the entry.
UniProt Q96EB6: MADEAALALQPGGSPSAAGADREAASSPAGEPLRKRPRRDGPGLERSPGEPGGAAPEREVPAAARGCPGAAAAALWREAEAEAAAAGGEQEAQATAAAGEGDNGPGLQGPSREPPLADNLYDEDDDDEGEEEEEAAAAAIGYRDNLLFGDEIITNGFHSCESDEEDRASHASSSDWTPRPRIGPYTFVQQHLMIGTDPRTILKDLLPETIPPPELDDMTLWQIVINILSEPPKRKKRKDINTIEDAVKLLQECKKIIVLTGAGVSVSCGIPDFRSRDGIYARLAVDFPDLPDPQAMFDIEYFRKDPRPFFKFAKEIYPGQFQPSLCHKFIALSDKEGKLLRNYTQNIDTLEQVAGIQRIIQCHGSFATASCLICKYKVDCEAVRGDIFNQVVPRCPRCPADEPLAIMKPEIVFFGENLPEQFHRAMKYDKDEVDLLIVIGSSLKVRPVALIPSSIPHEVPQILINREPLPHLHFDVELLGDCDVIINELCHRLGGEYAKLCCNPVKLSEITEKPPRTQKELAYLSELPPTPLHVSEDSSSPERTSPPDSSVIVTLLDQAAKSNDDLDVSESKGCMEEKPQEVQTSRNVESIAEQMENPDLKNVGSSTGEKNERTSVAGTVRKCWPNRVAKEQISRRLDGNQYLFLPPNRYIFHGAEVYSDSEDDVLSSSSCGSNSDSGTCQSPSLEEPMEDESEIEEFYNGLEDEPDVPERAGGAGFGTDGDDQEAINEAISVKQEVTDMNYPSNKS
GST-SIRT1 C-terminal domain (aa 500–747): residues 500-747 of Q96EB6

Experiments:
[1] = biological target: SIRT1 (endogenous) (human (endogenous in NCI-H1299)) (UniProt Q96EB6); test: co-IP; endogenous proteins from NCI-H1299 whole-cell extracts (NP40 lysis buffer); IP with anti-SIRT1 or anti-OGT antibody, immunoblot; control IgG and SIRT1- or OGT-silenced cells as controls
[2] = biological target: SIRT1 (endogenous) (human (endogenous in NCI-H1299)) (UniProt Q96EB6); test: condition: only cells lysed in 1% SDS lysis buffer and then diluted 10-fold with NP40 lysis buffer; co-IP; cells lysed in 1% SDS lysis buffer, then diluted 10-fold with NP40 lysis buffer (to denature proteins and disrupt complexes); IP with anti-SIRT1 antibody, immunoblot
[3] = biological target: GST-SIRT1 C-terminal domain (aa 500–747) (human) (UniProt Q96EB6); test: pull-down; GST-SIRT1 deletion mutants (100–200 ng) bound on GS4B beads, purified OGT (300 ng), overnight at 4 °C, washed three times with NP40 lysis buffer; both purified
[4] = biological target: Flag-tagged SIRT1^S549A (human) (UniProt Q96EB6); test: co-IP; HA-OGT and Flag-tagged wtSIRT1 or SIRT1^S549A co-transfected into NCI-H1299 cells; IP with anti-Flag antibody, immunoblot with anti-HA and anti-Flag
[5] = biological target: Flag-tagged wtSIRT1 (human) (UniProt Q96EB6); test: as above

binding [1]: binds
binding [2]: no binding
B1: O-GlcNAc transferase (OGT), endogenous (enzyme, UniProt O15294 1-1046)
chain: MASSVGNVADSTEPTKRMLSFQGLAELAHREYQAGDFEAAERHCMQLWRQEPDNTGVLLLLSSIHFQCRRLDRSAHFSTLAIKQNPLLAEAYSNLGNVYKERGQLQEAIEHYRHALRLKPDFIDGYINLAAALVAAGDMEGAVQAYVSALQYNPDLYCVRSDLGNLLKALGRLEEAKACYLKAIETQPNFAVAWSNLGCVFNAQGEIWLAIHHFEKAVTLDPNFLDAYINLGNVLKEARIFDRAVAAYLRALSLSPNHAVVHGNLACVYYEQGLIDLAIDTYRRAIELQPHFPDAYCNLANALKEKGSVAEAEDCYNTALRLCPTHADSLNNLANIKREQGNIEEAVRLYRKALEVFPEFAAAHSNLASVLQQQGKLQEALMHYKEAIRISPTFADAYSNMGNTLKEMQDVQGALQCYTRAIQINPAFADAHSNLASIHKDSGNIPEAIASYRTALKLKPDFPDAYCNLAHCLQIVCDWTDYDERMKKLVSIVADQLEKNRLPSVHPHHSMLYPLSHGFRKAIAERHGNLCLDKINVLHKPPYEHPKDLKLSDGRLRVGYVSSDFGNHPTSHLMQSIPGMHNPDKFEVFCYALSPDDGTNFRVKVMAEANHFIDLSQIPCNGKAADRIHQDGIHILVNMNGYTKGARNELFALRPAPIQAMWLGYPGTSGALFMDYIITDQETSPAEVAEQYSEKLAYMPHTFFIGDHANMFPHLKKKAVIDFKSNGHIYDNRIVLNGIDLKAFLDSLPDVKIVKMKCPDGGDNADSSNTALNMPVIPMNTIAEAVIEMINRGQIQITINGFSISNGLATTQINNKAATGEEVPRTIIVTTRSQYGLPEDAIVYCNFNQLYKIDPSTLQMWANILKRVPNSVLWLLRFPAVGEPNIQQYAQNMGLPQNRIIFSPVAPKEEHVRRGQLADVCLDTPLCNGHTTGMDVLWAGTPMVTMPGETLASRVAASQLTCLGCLELIAKNRQEYEDIAVKLGTDLEYLKKVRGKVWKQRISSPLFNTKQYTMELERLYLQMWEHYAAGNKPDHMIKPVEVTESA

binding [3]: binds
B2: MBP-fused OGT (enzyme, UniProt O15294 1-1046)
chain: B1 chain

binding [4]: binds
binding [5]: binds
B3: HA-tagged OGT (enzyme, UniProt O15294 1-1046)
chain: B1 chain
